# Counter-ions that a name gives are not always drawn. The list shows a part of the results. Many values rest on one well or one pass, so single values are uncertain.
# Test system: Trypanosoma brucei brucei bloodstream form L262P (kDNA-independent)
# Experiment: viability Z-score (nuclei count per well, median-polish normalised, relative to plate distribution); higher = more viable parasites (negative = growth inhibition)
# Conditions: 4 days; compound concentration: 10 µM (some Prestwick/PKE rows may be 1 µM / not distinguished)
row,SMILES,viability Z-score
1,O=C(N[C@]([H])(C=2C=CC1=CC=CN=C1C=2O)C=3OC=CC=3)C/C4=C/C=CC=C4,-2.92
2,O=C(N/C1=N/O/N=C1/C3=N/C=2C=CC=CC=2N3CC=4C=CC=CC=4)C=5C=CC([F])=CC=5,-1.78
3,O=C(C=1/C=C(/[Cl])C=CC=1N[C@]([H])(CC(=O)C=2C=CC=CC=2)C(=O)O)C=3C=CC=CC=3,-5.27
4,O=C1OC(CN2CCOCC2)CN1/N=C/c1ccc([N+](=O)[O-])o1 (stereo not given) [Furaltadone hydrochloride],-3.14
5,O=C(N[C@@]([H])(C2=N/N=C(/[S]CC(=O)NCC/C1=C/C=CC=C1)N2C)C(C)(C)[H])C3=CC(C)=CC=C3,-2.3
6,CC=2C=1NC(=NC=1C(C)=C(C)C=2C)[S]C/C3=N/C(=NO3)C4=CC(=CC(=C4)C([F])([F])[F])C([F])([F])[F],-2.8
7,CCOC(=O)NC12C[C@@H]3C[C@@H](CC(CC)(C3)C1)C2,-2.31
8,COC(=O)C[C@H](NC(=O)[C@H](C)NC(=O)[C@@H](NC(=O)OCc1ccccc1)C(C)C)C(=O)CF,-4.14
9,O=C(C[C@@]([H])(N/C2=C/C=1C=CC=CC=1C=C2)C3=CC=NC=C3)C4=C/C=C(/[Br])C=C4,-2.8
10,Cc1[nH]cnc1CN1CCc2c(c3ccccc3n2C)C1=O.Cl [Alosetron hydrochloride],-1.89
11,CC1=C(C#N)[C@@H](c2cccc([N+](=O)[O-])c2)C2=C(N1)c1ccccc1S2(=O)=O,-1.64
12,CC1(C)S[C@@H]2[C@H](NC(=O)Cc3ccccc3)C(=O)N2[C@H]1C(=O)[O-] [Benzylpenicillin sodium],-1.84
13,CN(C)C(=O)C(CCN1CCC(O)(c2ccc(Cl)cc2)CC1)(c1ccccc1)c1ccccc1 [Loperamide hydrochloride],-3.06
14,O=C(N[C@@]([H])(C/C1=C/NC=2C=CC=CC1=2)C(=O)OC)C=3[S]C=CC=3,-3.51
15,CCOC(=O)/N=c1/c[n+](N2CCOCC2)[n-]o1 [Molsidomine],-2.83
16,O=C(NN1C(C)=C/C=C1/C)C2=CC([Cl])=CC=C2,-2.74
17,CCCC(CCC)C(=O)O [Valproic acid],-5.26
18,CN1CCc2cccc3c2[C@H]1Cc1ccc(O)c(O)c1-3.CN1CCc2cccc3c2[C@H]1Cc1ccc(O)c(O)c1-3 [R(-) Apomorphine hydrochloride hemihydrate],-1.86
19,O=C(NCCSC1CCCCC1)c1ccco1,-3.4
20,Nc1nc2[nH]c(C(F)(F)F)nc2c(=O)[nH]1,-2.71

row,SMILES,viability Z-score
1,O=C(N(CC=1C=CC=CC=1)CC)C2=CC=C(C=C2)C(=O)N(C/C3=C/C=CC=C3)CC,-5.68
2,CC(CC1(CC(C)C)CCCCC1)=NNC(N)=O,-3.09
3,CCOC(=O)c1[nH]c(C)c(C(=O)N2CCN(CC)CC2)c1C,-3.52
4,CC(C)c1cccc2c1O[C@H](C(C)C)C(=S)N2CC(=O)O,-2.1
5,CCN1CCC[C@H]1CNC(=O)c1c(O)c(Cl)cc(Cl)c1OC [Raclopride],-1.82
6,O=C(C[S]/C3=N/N=C(/C1=C/NC=2C=CC=CC1=2)N3C)N4CCCC4,-3.1
7,O=C(C/C1=C/NC=2C=CC=CC1=2)OCC(=O)C3=CC=C(C=C3)C=4C=CC=CC=4,-2.8
8,[O-][N+](=O)C1=CC=C(/C=C1/C)C(=O)NC=2[S]C=C(C=2C(=O)OCCC)C=3C=CC=CC=3[Cl],-4.07
9,O=C(C/C1=C/C=C[S]1)N(C=3C=C2OCOC2=CC=3C(C)=O)[C@]([H])(C4=CC=C[S]4)C(=O)N[C@@]5([H])CCCCC5,-3.21
10,O=C(CCCO)c1ccc2c(c1)OCCO2,-2.15
11,O=C(NC/C2=C/C=1OCOC=1C=C2)C34CC5([H])CC([H])(C3)C[C@]([H])(C4)C5,-6.1
12,O=C(CCCCCN1C(=O)c2cccc3cccc(c23)C1=O)NO [Scriptaid],-5.88
13,O=C(N[C@]([H])(NC=1C=CC=CC=1[F])C(=O)C2=CC=CC=C2)C3=C/C=C(/[Cl])C=C3,-1.21
14,CC1=C2C(=O)c3ccccc3O[C@]23CC[C@H]1[C@H]1C(=O)N(C)C(=O)[C@H]13,-4.62
15,CSCC[C@@H](NS(=O)(=O)c1cccs1)C(=O)N1CCCCC1,-2.87
16,C#CCOC(=O)C=1OC(=CC=1)C[S]/C2=C/C=C(/[Cl])C=C2,-3.12
17,CSc1sc(-c2ccon2)c(-c2ccccc2)c1C#N,-2.95
18,[Cl]C=2C=CC(CN/C1=N/OC(C)=C1)=CC=2,-3.62
19,O=C2C=1N(CCC)C(=NC=1N(C)C(=O)N2C)N3CCN(CC3)C(=[S])NC=4C=C/C=C(/C)C=4C,-3.61
20,Cc1ccc(NC(=O)CCC(=O)N/N=C/c2coc3ccc(Br)cc3c2=O)cc1,-6.48

# Two of the compounds above, as tab-separated lines:
row	SMILES	viability Z-score
4	O=C1OC(CN2CCOCC2)CN1/N=C/c1ccc([N+](=O)[O-])o1 (stereo not given) [Furaltadone hydrochloride]	-3.14
13	CN(C)C(=O)C(CCN1CCC(O)(c2ccc(Cl)cc2)CC1)(c1ccccc1)c1ccccc1 [Loperamide hydrochloride]	-3.06

# From the supplement of paper PMC8846439
